Here are results for 3 molecules from paper PMC8455679.

Sequences of proteins named here, by UniProt entry; tags and fusion partners are left off.
UniProt P18583: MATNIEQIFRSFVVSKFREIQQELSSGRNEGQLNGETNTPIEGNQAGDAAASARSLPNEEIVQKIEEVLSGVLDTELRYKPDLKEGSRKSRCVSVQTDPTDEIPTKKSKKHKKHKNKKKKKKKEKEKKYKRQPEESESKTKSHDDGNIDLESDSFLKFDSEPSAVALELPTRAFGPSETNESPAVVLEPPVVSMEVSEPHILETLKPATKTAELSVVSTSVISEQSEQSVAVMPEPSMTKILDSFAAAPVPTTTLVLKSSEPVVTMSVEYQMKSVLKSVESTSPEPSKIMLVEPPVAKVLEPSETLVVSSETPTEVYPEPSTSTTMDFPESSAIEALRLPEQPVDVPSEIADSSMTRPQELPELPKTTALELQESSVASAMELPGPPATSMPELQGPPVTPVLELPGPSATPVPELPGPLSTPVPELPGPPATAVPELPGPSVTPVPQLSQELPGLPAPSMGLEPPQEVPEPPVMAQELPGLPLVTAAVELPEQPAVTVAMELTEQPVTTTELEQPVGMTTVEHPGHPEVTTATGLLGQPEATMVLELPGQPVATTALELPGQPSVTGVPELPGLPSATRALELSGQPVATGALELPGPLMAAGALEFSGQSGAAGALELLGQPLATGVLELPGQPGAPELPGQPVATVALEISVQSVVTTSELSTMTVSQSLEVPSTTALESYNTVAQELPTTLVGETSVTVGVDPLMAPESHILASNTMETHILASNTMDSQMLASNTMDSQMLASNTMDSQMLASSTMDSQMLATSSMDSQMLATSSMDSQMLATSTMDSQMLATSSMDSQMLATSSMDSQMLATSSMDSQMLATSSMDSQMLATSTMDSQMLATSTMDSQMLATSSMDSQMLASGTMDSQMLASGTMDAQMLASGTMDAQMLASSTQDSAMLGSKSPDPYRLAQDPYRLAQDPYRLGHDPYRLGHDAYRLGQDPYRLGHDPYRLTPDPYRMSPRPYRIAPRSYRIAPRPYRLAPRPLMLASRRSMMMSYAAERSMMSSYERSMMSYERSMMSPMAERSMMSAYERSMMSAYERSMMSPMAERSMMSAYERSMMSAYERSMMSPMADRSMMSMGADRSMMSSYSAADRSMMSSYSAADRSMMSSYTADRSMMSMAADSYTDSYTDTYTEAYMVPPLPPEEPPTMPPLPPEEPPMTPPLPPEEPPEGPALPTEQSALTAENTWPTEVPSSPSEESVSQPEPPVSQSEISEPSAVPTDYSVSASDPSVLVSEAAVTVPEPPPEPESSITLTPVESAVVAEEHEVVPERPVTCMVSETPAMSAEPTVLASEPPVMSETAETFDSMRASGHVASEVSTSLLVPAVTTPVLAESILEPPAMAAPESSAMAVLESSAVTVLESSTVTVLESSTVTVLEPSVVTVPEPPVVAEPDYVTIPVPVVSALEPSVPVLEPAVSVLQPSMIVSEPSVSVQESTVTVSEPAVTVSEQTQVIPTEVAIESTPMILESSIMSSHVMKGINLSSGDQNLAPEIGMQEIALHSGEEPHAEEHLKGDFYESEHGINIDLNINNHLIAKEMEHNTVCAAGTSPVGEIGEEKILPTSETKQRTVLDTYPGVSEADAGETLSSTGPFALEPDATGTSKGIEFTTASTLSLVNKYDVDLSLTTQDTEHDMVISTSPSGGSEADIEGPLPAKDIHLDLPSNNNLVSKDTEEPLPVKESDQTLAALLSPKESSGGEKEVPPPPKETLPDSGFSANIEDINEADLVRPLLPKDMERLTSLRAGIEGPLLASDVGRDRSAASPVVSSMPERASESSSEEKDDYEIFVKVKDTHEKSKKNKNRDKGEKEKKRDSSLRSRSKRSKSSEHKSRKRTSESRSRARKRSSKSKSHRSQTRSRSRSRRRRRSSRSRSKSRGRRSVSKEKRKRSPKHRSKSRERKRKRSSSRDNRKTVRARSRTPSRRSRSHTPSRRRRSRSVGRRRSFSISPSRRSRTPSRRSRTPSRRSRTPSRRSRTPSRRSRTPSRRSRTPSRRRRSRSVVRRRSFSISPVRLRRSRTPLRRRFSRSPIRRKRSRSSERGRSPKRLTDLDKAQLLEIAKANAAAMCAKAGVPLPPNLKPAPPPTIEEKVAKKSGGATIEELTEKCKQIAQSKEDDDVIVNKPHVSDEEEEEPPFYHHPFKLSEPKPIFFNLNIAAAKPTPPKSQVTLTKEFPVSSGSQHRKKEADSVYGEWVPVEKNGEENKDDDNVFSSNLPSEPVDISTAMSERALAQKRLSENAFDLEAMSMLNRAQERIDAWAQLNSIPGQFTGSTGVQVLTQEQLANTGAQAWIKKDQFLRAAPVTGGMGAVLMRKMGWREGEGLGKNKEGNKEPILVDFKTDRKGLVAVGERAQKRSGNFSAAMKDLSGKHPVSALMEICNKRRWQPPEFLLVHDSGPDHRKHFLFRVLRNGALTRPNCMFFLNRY

Assay in all cases: co-IP; U87MG cell lysates (50 mM Tris-HCl pH 8.0, 150 mM NaCl, 0.5% NP-40, 10% glycerol, 50 U/mL benzonase) immunoprecipitated with rabbit IgG, SON antibody or RBFOX2 antibody and protein A-Sepharose at 4 °C overnight; Western blot
The target of assay [1] is T1, RBFOX2 (human (endogenous in U87MG)) (UniProt O43251).
T1 sequence: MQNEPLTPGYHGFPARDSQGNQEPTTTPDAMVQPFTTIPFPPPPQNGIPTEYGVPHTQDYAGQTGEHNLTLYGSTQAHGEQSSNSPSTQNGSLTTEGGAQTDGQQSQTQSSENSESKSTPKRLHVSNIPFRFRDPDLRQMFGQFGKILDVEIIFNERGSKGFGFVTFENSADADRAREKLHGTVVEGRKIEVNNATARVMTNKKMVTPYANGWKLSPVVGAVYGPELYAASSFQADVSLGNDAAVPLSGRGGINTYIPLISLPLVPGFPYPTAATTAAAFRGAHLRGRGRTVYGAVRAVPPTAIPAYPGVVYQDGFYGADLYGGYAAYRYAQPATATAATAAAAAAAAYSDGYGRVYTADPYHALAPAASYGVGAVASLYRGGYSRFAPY

Assay [2] deals with SON (human (endogenous in U87MG)) (UniProt P18583).
Substrate in assay [3]: SON (human (endogenous in U87MG)) (UniProt P18583)
This is another data set of the same source.

Like-named read-outs stand apart in the source and are kept apart here. These are yes or no findings as the source states them, for the method shown. Binding seen in cells or lysates may run through a third protein. Some results given as binding are weak or reduced against the parent protein; the word gives no strength.

As to hnRNP K (from UniProt P61978 1-463), the binding entry in assay [1] was “no binding”; in assay [2] it was “binds”.

B1: RBFOX2 (protein, UniProt O43251 1-390)
chain: MQNEPLTPGYHGFPARDSQGNQEPTTTPDAMVQPFTTIPFPPPPQNGIPTEYGVPHTQDYAGQTGEHNLTLYGSTQAHGEQSSNSPSTQNGSLTTEGGAQTDGQQSQTQSSENSESKSTPKRLHVSNIPFRFRDPDLRQMFGQFGKILDVEIIFNERGSKGFGFVTFENSADADRAREKLHGTVVEGRKIEVNNATARVMTNKKMVTPYANGWKLSPVVGAVYGPELYAASSFQADVSLGNDAAVPLSGRGGINTYIPLISLPLVPGFPYPTAATTAAAFRGAHLRGRGRTVYGAVRAVPPTAIPAYPGVVYQDGFYGADLYGGYAAYRYAQPATATAATAAAAAAAAYSDGYGRVYTADPYHALAPAASYGVGAVASLYRGGYSRFAPY
On to B1, for which, in assay [3], the binding entry was “no binding”.

B2: hnRNP M (protein, UniProt P52272 1-730)
chain: MAAGVEAAAEVAATEIKMEEESGAPGVPSGNGAPGPKGEGERPAQNEKRKEKNIKRGGNRFEPYANPTKRYRAFITNIPFDVKWQSLKDLVKEKVGEVTYVELLMDAEGKSRGCAVVEFKMEESMKKAAEVLNKHSLSGRPLKVKEDPDGEHARRAMQKVMATTGGMGMGPGGPGMITIPPSILNNPNIPNEIIHALQAGRLGSTVFVANLDYKVGWKKLKEVFSMAGVVVRADILEDKDGKSRGIGTVTFEQSIEAVQAISMFNGQLLFDRPMHVKMDERALPKGDFFPPERPQQLPHGLGGIGMGLGPGGQPIDANHLNKGIGMGNIGPAGMGMEGIGFGINKMGGMEGPFGGGMENMGRFGSGMNMGRINEILSNALKRGEIIAKQGGGGGGGSVPGIERMGPGIDRLGGAGMERMGAGLGHGMDRVGSEIERMGLVMDRMGSVERMGSGIERMGPLGLDHMASSIERMGQTMERIGSGVERMGAGMGFGLERMAAPIDRVGQTIERMGSGVERMGPAIERMGLSMERMVPAGMGAGLERMGPVMDRMATGLERMGANNLERMGLERMGANSLERMGLERMGANSLERMGPAMGPALGAGIERMGLAMGGGGGASFDRAIEMERGNFGGSFAGSFGGAGGHAPGVARKACQIFVRNLPFDFTWKMLKDKFNECGHVLYADIKMENGKSKGCGVVKFESPEVAERACRMMNGMKLSGREIDVRIDRNA
Turning to B2, the binding entry in assay [1] and in assay [3] was “binds” in each case.
